Source: paper PMC5439944
No constants are given. Whether binding was seen depends on the method and setting. For some of these results: In cells and extracts the contact can be indirect. Some results given as binding are weak or reduced against the parent protein; the word gives no strength. For some of these results: Tags and fused reporters may be left off the sequences shown.

Sequences of proteins named here, by UniProt entry; tags and fusion partners are left off.
UniProt Q7LBC6: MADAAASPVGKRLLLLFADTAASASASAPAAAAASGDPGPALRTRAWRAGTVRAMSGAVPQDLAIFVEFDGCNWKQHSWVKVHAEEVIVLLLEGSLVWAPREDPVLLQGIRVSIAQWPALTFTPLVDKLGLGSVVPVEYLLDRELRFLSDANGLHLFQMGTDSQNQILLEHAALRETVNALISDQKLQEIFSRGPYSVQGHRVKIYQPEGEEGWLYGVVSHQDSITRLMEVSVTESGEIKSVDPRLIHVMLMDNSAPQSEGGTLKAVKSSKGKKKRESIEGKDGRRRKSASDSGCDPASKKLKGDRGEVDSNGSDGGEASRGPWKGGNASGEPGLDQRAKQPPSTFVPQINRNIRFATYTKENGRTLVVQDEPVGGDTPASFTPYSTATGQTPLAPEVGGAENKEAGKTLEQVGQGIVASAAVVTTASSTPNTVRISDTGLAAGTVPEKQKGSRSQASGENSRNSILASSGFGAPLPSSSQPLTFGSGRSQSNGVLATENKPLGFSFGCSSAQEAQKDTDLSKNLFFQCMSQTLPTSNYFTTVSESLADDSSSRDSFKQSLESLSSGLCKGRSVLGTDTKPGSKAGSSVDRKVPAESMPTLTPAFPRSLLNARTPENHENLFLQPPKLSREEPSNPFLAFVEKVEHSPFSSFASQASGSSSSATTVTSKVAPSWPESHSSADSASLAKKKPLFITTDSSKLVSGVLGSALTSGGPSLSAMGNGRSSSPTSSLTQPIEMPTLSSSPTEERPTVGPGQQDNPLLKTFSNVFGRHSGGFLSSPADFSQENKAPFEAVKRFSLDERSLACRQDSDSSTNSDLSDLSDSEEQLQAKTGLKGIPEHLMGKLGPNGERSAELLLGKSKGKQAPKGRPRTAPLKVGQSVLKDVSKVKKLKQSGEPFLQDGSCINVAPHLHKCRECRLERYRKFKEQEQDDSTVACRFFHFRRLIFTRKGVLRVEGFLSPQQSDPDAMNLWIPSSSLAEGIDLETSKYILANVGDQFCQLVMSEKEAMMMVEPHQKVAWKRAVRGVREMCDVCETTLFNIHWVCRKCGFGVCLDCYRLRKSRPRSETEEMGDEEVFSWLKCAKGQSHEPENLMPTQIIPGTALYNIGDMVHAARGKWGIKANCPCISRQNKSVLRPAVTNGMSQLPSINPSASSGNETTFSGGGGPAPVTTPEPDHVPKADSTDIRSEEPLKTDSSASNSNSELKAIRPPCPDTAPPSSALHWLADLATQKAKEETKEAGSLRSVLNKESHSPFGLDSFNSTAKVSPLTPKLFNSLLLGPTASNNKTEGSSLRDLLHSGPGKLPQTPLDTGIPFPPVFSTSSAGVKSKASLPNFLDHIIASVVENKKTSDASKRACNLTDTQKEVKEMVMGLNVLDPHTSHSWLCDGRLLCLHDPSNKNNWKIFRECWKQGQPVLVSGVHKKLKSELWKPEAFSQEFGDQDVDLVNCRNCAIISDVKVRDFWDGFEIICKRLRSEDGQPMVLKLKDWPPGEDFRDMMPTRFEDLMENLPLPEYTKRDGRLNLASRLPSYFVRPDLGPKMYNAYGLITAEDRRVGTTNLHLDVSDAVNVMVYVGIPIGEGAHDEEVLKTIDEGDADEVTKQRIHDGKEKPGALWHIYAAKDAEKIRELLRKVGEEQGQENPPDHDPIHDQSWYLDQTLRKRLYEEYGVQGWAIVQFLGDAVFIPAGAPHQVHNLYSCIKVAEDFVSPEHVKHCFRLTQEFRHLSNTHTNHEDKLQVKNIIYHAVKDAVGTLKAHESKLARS

Legend:
[1] = target: T1, RNF41 C34S/H36Q MAPPIT bait (UniProt Q9H4P4); assay: two-hybrid; Array MAPPIT (mammalian two-hybrid in intact cells): RNF41 C34S/H36Q bait screened against 8,569 full length human ORF preys; luciferase read-out
T1 sequence: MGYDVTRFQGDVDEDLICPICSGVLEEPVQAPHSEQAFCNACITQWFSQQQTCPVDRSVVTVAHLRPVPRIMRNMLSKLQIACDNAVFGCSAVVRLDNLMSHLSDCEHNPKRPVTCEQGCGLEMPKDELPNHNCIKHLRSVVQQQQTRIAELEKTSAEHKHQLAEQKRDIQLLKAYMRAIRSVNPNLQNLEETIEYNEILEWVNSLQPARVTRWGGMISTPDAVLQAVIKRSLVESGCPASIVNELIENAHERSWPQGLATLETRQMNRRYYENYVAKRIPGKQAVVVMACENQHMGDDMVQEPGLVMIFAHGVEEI

[2] = target: T2, RNF41 L163Q mutant MAPPIT bait (UniProt Q9H4P4); assay: two-hybrid; binary MAPPIT in HEK293T cells: bait, prey and pXP2d2-rPAP1-luciferase reporter co-transfected, 24 h Epo (5 ng/ml) or untreated; fold induction relative to a JAK2 binding prey
T2 sequence: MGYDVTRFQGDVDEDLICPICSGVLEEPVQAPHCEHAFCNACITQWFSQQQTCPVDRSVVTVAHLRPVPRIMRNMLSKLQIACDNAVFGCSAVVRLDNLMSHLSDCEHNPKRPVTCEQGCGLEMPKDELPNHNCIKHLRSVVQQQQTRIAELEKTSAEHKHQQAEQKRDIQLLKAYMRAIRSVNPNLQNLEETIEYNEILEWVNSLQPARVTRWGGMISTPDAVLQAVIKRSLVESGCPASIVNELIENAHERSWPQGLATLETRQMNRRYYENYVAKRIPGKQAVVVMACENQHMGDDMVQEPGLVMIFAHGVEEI

[3] = target: T3, RNF41 wild type MAPPIT bait (UniProt Q9H4P4); assay: as above
T3 sequence: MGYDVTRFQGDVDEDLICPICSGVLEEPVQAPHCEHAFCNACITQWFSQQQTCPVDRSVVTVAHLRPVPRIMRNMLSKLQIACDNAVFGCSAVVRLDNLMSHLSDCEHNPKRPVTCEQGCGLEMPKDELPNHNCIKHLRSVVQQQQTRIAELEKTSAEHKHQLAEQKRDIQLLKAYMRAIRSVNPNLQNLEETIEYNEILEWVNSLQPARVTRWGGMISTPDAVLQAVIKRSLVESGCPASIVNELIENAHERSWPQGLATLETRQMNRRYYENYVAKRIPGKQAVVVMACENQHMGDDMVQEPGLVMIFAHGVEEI

[4] = target: T4, Flag-tagged RNF41 L163Q (UniProt Q9H4P4); assay: AlphaScreen or HTRF; AlphaScreen on lysates of HEK293T cells co-transfected with an E-tagged and a Flag-tagged protein; biotinylated anti-E-tag antibody, FLAG (M2) acceptor beads, streptavidin donor beads; TAP lysis buffer
T4 sequence: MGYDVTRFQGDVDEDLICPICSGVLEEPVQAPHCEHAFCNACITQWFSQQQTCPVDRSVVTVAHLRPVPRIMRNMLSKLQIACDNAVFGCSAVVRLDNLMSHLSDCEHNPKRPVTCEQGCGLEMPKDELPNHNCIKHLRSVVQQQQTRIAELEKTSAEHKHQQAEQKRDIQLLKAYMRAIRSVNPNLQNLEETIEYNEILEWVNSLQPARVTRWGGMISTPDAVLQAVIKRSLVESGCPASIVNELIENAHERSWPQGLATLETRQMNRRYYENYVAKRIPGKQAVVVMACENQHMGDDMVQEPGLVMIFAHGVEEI

[5] = target: T5, Flag-tagged RNF41 (wild type) (UniProt Q9H4P4); assay: as above
T5 sequence: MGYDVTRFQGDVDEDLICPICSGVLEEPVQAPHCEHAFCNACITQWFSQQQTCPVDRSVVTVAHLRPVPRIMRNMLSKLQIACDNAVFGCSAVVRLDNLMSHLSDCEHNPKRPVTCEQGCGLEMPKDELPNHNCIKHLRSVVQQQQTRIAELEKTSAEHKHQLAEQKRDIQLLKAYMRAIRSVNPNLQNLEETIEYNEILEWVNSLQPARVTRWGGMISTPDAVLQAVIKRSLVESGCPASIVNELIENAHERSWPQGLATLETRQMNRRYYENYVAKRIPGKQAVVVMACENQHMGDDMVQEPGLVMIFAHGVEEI

[6] = target: T5, Flag-tagged RNF41 (wild type); assay: AlphaScreen or HTRF; AlphaScreen on lysates of HEK293T cells co-transfected with an E-tagged and a Flag-tagged protein together with a third protein or soluble IL5Rα (mock)
[7] = target: T4, Flag-tagged RNF41 L163Q; assay: co-IP; HEK293T cells co-transfected with an E-tagged and a Flag-tagged protein; anti-Flag M2 agarose, elution with Flag peptide, blot with anti-Etag and anti-Flag
[8] = target: T5, Flag-tagged RNF41 (wild type); assay: as above
[9] = target: T6, Flag-tagged VPS52 (wild type) (UniProt Q8N1B4); assay: AlphaScreen or HTRF; AlphaScreen on lysates of HEK293T cells co-transfected with an E-tagged and a Flag-tagged protein together with a third protein or soluble IL5Rα (mock)
T6 sequence: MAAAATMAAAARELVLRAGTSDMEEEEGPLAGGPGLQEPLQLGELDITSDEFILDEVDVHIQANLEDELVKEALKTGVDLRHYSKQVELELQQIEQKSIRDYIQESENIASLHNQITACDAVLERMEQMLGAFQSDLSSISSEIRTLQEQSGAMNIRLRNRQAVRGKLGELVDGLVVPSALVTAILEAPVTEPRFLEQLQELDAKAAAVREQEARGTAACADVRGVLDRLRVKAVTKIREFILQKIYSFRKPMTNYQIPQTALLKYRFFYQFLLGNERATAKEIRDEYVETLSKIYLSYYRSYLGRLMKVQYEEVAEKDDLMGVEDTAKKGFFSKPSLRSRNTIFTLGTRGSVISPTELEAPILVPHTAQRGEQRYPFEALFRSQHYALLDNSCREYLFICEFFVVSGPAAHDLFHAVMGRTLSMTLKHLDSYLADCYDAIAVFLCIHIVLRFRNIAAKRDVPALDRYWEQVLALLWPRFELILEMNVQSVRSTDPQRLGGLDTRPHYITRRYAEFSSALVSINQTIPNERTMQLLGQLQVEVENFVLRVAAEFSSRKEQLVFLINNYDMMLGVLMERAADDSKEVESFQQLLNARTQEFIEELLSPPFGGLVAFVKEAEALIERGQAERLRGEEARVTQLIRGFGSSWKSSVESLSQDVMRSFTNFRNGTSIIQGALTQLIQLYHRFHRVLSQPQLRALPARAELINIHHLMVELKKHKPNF

KDM3B MAPPIT prey (from UniProt Q7LBC6 1-1761)
binding [1]: binds

B1: USP8 MAPPIT prey (protein, UniProt P40818 1-1118)
chain: MPAVASVPKELYLSSSLKDLNKKTEVKPEKISTKSYVHSALKIFKTAEECRLDRDEERAYVLYMKYVTVYNLIKKRPDFKQQQDYFHSILGPGNIKKAVEEAERLSESLKLRYEEAEVRKKLEEKDRQEEAQRLQQKRQETGREDGGTLAKGSLENVLDSKDKTQKSNGEKNEKCETKEKGAITAKELYTMMTDKNISLIIMDARRMQDYQDSCILHSLSVPEEAISPGVTASWIEAHLPDDSKDTWKKRGNVEYVVLLDWFSSAKDLQIGTTLRSLKDALFKWESKTVLRNEPLVLEGGYENWLLCYPQYTTNAKVTPPPRRQNEEVSISLDFTYPSLEESIPSKPAAQTPPASIEVDENIELISGQNERMGPLNISTPVEPVAASKSDVSPIIQPVPSIKNVPQIDRTKKPAVKLPEEHRIKSESTNHEQQSPQSGKVIPDRSTKPVVFSPTLMLTDEEKARIHAETALLMEKNKQEKELRERQQEEQKEKLRKEEQEQKAKKKQEAEENEITEKQQKAKEEMEKKESEQAKKEDKETSAKRGKEITGVKRQSKSEHETSDAKKSVEDRGKRCPTPEIQKKSTGDVPHTSVTGDSGSGKPFKIKGQPESGILRTGTFREDTDDTERNKAQREPLTRARSEEMGRIVPGLPSGWAKFLDPITGTFRYYHSPTNTVHMYPPEMAPSSAPPSTPPTHKAKPQIPAERDREPSKLKRSYSSPDITQAIQEEEKRKPTVTPTVNRENKPTCYPKAEISRLSASQIRNLNPVFGGSGPALTGLRNLGNTCYMNSILQCLCNAPHLADYFNRNCYQDDINRSNLLGHKGEVAEEFGIIMKALWTGQYRYISPKDFKITIGKINDQFAGYSQQDSQELLLFLMDGLHEDLNKADNRKRYKEENNDHLDDFKAAEHAWQKHKQLNESIIVALFQGQFKSTVQCLTCHKKSRTFEAFMYLSLPLASTSKCTLQDCLRLFSKEEKLTDNNRFYCSHCRARRDSLKKIEIWKLPPVLLVHLKRFSYDGRWKQKLQTSVDFPLENLDLSQYVIGPKNNLKKYNLFSVSNHYGGLDGGHYTAYCKNAARQRWFKFDDHEVSDISVSSVKSSAAYILFYTSLGPRVTDVAT
binding [2]: binds
binding [3]: binds

B2: ASB6 MAPPIT prey (protein, UniProt Q9NWX5 1-421)
chain: MPFLHGFRRIIFEYQPLVDAILGSLGIQDPERQESLDRPSYVASEESRILVLTELLERKAHSPFYQEGVSNALLKMAELGLTRAADVLLRHGANLNFEDPVTYYTALHIAVLRNQPDMVELLVHHGADVNRRDRIHESSPLDLASEEPERLPCLQRLLDLGADVNAADKHGKTALLHALASSDGVQIHNTENIRLLLEGGADVKATTKDGDTVFTCIIFLLGETVGGDKEEAQMINRFCFQVTRLLLAHGADPSECPAHESLTHICLKSFKLHFPLLRFLLESGAAYNCSLHGASCWSGFHIIFERLCSHPGCTEDESHADLLRKAETVLDLMVTNSQKLQLPENFDIHPVGSLAEKIQALHFSLRQLESYPPPLKHLCRVAIRLYLQPWPVDVKVKALPLPDRLKWYLLSEHSGSVEDDI
binding [2]: binds
binding [3]: binds
binding [1]: binds

B3: E-tagged RNF41 (wild type) (protein, UniProt Q9H4P4 1-317)
chain: MGYDVTRFQGDVDEDLICPICSGVLEEPVQAPHCEHAFCNACITQWFSQQQTCPVDRSVVTVAHLRPVPRIMRNMLSKLQIACDNAVFGCSAVVRLDNLMSHLSDCEHNPKRPVTCEQGCGLEMPKDELPNHNCIKHLRSVVQQQQTRIAELEKTSAEHKHQLAEQKRDIQLLKAYMRAIRSVNPNLQNLEETIEYNEILEWVNSLQPARVTRWGGMISTPDAVLQAVIKRSLVESGCPASIVNELIENAHERSWPQGLATLETRQMNRRYYENYVAKRIPGKQAVVVMACENQHMGDDMVQEPGLVMIFAHGVEEI
binding [4]: binds
binding [5]: binds
binding [6]: binds
binding [7]: binds
binding [8]: binds

B4: HOMER2 MAPPIT prey (protein, UniProt Q9NSB8 1-354)
chain: MGEQPIFTTRAHVFQIDPNTKKNWMPASKQAVTVSYFYDVTRNSYRIISVDGAKVIINSTITPNMTFTKTSQKFGQWADSRANTVFGLGFSSEQQLTKFAEKFQEVKEAAKIAKDKTQEKIETSSNHSQESGRETPSSTQASSVNGTDDEKASHAGPANTHLKSENDKLKIALTQSAANVKKWEIELQTLRESNARLTTALQESAASVEQWKRQFSICRDENDRLRNKIDELEEQCSEINREKEKNTQLKRRIEELEAELREKETELKDLRKQSEIIPQLMSECEYVSEKLEAAERDNQNLEDKVRSLKTDIEESKYRQRHLKVELKSFLEVLDGKIDDLHDFRRGLSKLGTDN
binding [1]: binds

B5: E-tagged VPS52 (protein, UniProt Q8N1B4 1-723)
chain: MAAAATMAAAARELVLRAGTSDMEEEEGPLAGGPGLQEPLQLGELDITSDEFILDEVDVHIQANLEDELVKEALKTGVDLRHYSKQVELELQQIEQKSIRDYIQESENIASLHNQITACDAVLERMEQMLGAFQSDLSSISSEIRTLQEQSGAMNIRLRNRQAVRGKLGELVDGLVVPSALVTAILEAPVTEPRFLEQLQELDAKAAAVREQEARGTAACADVRGVLDRLRVKAVTKIREFILQKIYSFRKPMTNYQIPQTALLKYRFFYQFLLGNERATAKEIRDEYVETLSKIYLSYYRSYLGRLMKVQYEEVAEKDDLMGVEDTAKKGFFSKPSLRSRNTIFTLGTRGSVISPTELEAPILVPHTAQRGEQRYPFEALFRSQHYALLDNSCREYLFICEFFVVSGPAAHDLFHAVMGRTLSMTLKHLDSYLADCYDAIAVFLCIHIVLRFRNIAAKRDVPALDRYWEQVLALLWPRFELILEMNVQSVRSTDPQRLGGLDTRPHYITRRYAEFSSALVSINQTIPNERTMQLLGQLQVEVENFVLRVAAEFSSRKEQLVFLINNYDMMLGVLMERAADDSKEVESFQQLLNARTQEFIEELLSPPFGGLVAFVKEAEALIERGQAERLRGEEARVTQLIRGFGSSWKSSVESLSQDVMRSFTNFRNGTSIIQGALTQLIQLYHRFHRVLSQPQLRALPARAELINIHHLMVELKKHKPNF
binding [9]: binds
